Drawing on patent publication US20240018262A1, this text covers binding for five molecules.

By UniProt entry, the sequences of proteins in these tests, tags left out. Residues count along the entry.
UniProt P51654, residues 25-559: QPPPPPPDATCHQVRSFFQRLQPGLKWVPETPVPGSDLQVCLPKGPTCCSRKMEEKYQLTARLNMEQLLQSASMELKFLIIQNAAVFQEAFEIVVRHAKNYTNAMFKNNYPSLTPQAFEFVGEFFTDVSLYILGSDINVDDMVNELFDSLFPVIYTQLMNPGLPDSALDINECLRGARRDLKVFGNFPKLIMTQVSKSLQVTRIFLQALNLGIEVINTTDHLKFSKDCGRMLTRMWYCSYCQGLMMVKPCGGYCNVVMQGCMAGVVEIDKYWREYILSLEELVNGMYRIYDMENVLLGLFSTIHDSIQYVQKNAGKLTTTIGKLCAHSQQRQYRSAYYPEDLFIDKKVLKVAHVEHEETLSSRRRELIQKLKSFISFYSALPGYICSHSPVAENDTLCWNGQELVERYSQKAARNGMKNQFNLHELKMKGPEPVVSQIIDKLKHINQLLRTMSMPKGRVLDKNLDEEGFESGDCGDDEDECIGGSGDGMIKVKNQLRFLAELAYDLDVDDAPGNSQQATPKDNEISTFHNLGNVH

No constants are given. Whether binding was seen depends on the method and setting. Some results given as binding are weak or reduced against the parent protein; the word gives no strength.

The target of test [1] is GPC3 protein (Acrobiosystems, cat #GP3-H52H4) (UniProt P51654). As to the kind of experiment: hybridoma screening ELISA on GPC3. On the technique in general: In an ELISA, binding on a coated surface is turned into a signal by an enzyme label.
For test [2] the target is unchanged. The experiment in a line: ELISA on coated GPC3 protein.

B1: 8B2 antibody (antibody, V domains shown)
VH: QVQLQQPGAELVKPGASVKMSCKASGYTFTSYNMHWVKQTPGQGLEWIGAIYPGNGYTSYNQKFKGKATLTADKSSSTAYMQLSSLTSEDSAVYYCARGGGPFAYWGQGTLVTVSA
VL: DIVMTQSHKFMSTSVGDRVSITCKASQDVGTAVAWYQQKPGQSPKLLIYWPSTRHTGVPDRFTGSGSGTDFTLTISNVQSEDLADYFCQQYSSYPFTFGSGTKLEIK
B1: the binding entry in test [1] and in test [2] was “binds” in each case.

B2: 7C6 antibody (antibody, V domains shown)
VH: QVQLQQPGAELVKPGASVKLSCKASGYTFTTYYMYWVKQRPGQGLEWIGEINPSNGGTNFNEKFKSKATLTVDKSSSTAYMQLSSLTSEDSAVYYCTTFAYWGQGTLVTVSA
VL: DIVMTQSPSSLSASLGGKVTITCKASQDINKYIVWYQHKPGKGPRLLIHYTSILQPGIPSRFSGSGSGRDYSFSISNLEPEDIATYYCLQYDNLWTFGGGTKLEIK
On to B2, for which the binding entry in test [1] and in test [2] was “binds” in each case.

B3: 10E9 antibody (antibody, V domains shown)
VH: EVQLEESGTVLARPGASVKMSCKASGYTFTSYWMHWIKQRPGQGLEWIGAIYPGNSDTSYNQKFKGKAKLTAVTSTSTAYMELSSLTNEDSAVYYCTRGEYDYVLAYWGQGTLVTVSA
VL: DIVMTQSPATLSVTPGDSVSLSCRASQSISNNLHWYQQKSHESPRLLIKFASQSISGIPSRFSGSGSGTDFTLSINSVETEDFGMYFCQQSNSWPHMYTFGGGTKLEIK
Consider B3, for which the binding entry in test [1] and in test [2] was “binds” each time.

B4: 1A8 antibody (antibody, V domains shown)
VH: QVQLQQPGSELVRPGASVKLSCKASGYTFTSYWMHWVKQRHGQGLEWIGNIYPGSGSTNYDEKFKSKGTLTVDTSSRTAYMHLSSLTSEDSAVYYCTRGHYDYAMDYWGQGTSVTVSS
VL: DIVMTQSPSSLSASLGDTITITCHASQNINVWLSWYQQKPGNIPKLLIYKTSNLHTGVPSRFSGSGSGTGFTLTISSLQPEDIATYYCQQGQSYPWTFGGGTKLEIK
For the molecule B4, the binding result in test [1] and in test [2] was “binds” in each case.

B5: 5E11 antibody (antibody, V domains shown)
VH: QVQLKQSGAELMKPGASVKISCKATGYTFSRYWIEWVKQRPGHGLEWIGEILPGSGSTSYNEKFKGKATFTADTSSNTAYMQLSSLTSEDSAVYYCARSARATYYFDYWGQGTTLTVSS
VL: DIQMTQTTSSLSASLGDRVTISCWASQDISNYLNWYQQKPDGTVKLLIYYTSTLHSGVPSRFSGSGSGTDYSLTISNLEQEDIATYFCQQGNALPYTFGGGTKLEIK
For the molecule B5, the binding result in test [1] and in test [2] was “binds” in each case.
